Laboratory results from article doi:10.1101/2021.02.15.430920.
Numbering of substitutions follows the chain as printed. Results are given in words; binding and its absence hold for the method and conditions named. Some binding calls cover weakened binding; strength is not graded here. For some of these results: Sequences can lack the tags named with a protein. Each block holds one binder with its values, some of them ahead of it.

Key:
[1] = target: T1, A. thaliana RPN10_56GKG58->K (A. thaliana) (UniProt P55034); experiment: two-hybrid
T1 sequence: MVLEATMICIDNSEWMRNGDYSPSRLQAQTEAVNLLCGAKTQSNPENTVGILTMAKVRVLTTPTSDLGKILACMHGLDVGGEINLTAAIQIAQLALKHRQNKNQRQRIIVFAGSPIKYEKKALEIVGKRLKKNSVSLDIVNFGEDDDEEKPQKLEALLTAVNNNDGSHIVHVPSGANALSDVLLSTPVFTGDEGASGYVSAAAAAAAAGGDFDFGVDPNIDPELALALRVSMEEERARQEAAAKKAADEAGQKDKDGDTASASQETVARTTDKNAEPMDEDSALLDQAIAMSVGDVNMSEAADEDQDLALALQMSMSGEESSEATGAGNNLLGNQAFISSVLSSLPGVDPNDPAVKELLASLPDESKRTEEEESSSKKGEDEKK

[2] = target: T2, A. thaliana RPN10, full-length, yeast two-hybrid fusion (A. thaliana) (UniProt P55034); experiment: two-hybrid
T2 sequence: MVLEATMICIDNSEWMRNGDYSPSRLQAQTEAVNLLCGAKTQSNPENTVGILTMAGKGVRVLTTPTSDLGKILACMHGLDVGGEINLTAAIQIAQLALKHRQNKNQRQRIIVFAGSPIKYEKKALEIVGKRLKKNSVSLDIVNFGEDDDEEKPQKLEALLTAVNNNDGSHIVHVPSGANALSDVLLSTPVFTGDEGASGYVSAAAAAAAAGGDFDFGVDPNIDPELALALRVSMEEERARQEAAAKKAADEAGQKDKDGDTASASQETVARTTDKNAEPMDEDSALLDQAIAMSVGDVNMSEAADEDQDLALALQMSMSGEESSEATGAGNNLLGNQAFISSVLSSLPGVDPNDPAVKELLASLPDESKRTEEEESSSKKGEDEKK

[3] = target: T3, A. thaliana RPN10_38GA39->HS (A. thaliana) (UniProt P55034); experiment: two-hybrid
T3 sequence: T2 sequence with G38H, A39S

[4] = target: T4, His-SUMO-tagged vWA domain of AtRPN10 with 38GA39->HS (A. thaliana) (UniProt P55034); experiment: pull-down
T4 sequence: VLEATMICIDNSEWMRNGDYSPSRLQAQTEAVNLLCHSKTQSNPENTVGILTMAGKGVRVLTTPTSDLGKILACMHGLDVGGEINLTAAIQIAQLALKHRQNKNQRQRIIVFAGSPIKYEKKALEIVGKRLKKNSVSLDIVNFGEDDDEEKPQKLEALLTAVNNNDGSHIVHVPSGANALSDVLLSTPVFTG

binding [1]: binds
binding [2]: binds
binding [3]: binds
B1: A. thaliana RADIATION …23 (RAD23B) protein (protein, UniProt Q84L33 1-371)
chain: MKLTVKTLKGSHFEIRVLPSDTIMAVKKNIEDSQGKDNYPCGQQLLIHNGKVLKDETSLVENKVTEEGFLVVMLSKSKSGGSAGQASVQTSSVSQPVSATTSSTKPAAPSTTQSSPVPASPIPAQEQPAAQTDTYGQAASTLVSGSSLEQMVQQIMEMGGGSWDKETVTRALRAAYNNPERAVDYLYSGIPQTAEVAVPVPEAQIAGSGAAPVAPASGGPNSSPLDLFPQETVAAAGSGDLGTLEFLRNNDQFQQLRTMVHSNPQILQPMLQELGKQNPQLLRLIQENQAEFLQLVNEPYEGSDGEGDMFDQPEQEMPHAINVTPAEQEAIQRLEAMGFDRALVIEAFLACDRNEELAANYLLENSGDFED

binding [4]: no binding (tested: 20 uM)
B2: ZnF domain of AtSPL5 (Ser60-Leu127), recombinant (domain or fragment, UniProt Q9S758 60-127)
chain: SRLCQVDRCTVNLTEAKQYYRRHRVCEVHAKASAATVAGVRQRFCQQCSRFHELPEFDEAKRSCRRRL
